Assay results taken from PubChem BioAssay AID330 (DTP/NCI, 2004).
The list does not hold the whole screen: it is rich in T/C values a quarter to a half above the control, in often repeated tests (any T/C) and in doses without a T/C. Further doses and runs are listed elsewhere. T/C gives the treated animals as a percentage of the vehicle group. Some entries give survivors of the animals treated and no T/C: the source files T/C as zero there, which appears to mark a toxic dose or a test without result, not a measured value. Some doses without a T/C left all or most animals alive at the check, yet need not have been tolerated: survival well below the control is almost never listed, so the zero probably covers shortened survival too. Counts of survivors are from the toxicity check (mostly the fifth day) where no day follows; animals may have died later. Schedules are NCI's codes, taken here to give the interval after Q, in days (D) or hours (H), and the number of doses after X. Signs of the kind (2×) say how often a value occurs here. Some entries were tested several times; the results are listed from low to high. Where survival is the endpoint, the PubChem record calls one and a half times the control and up active, and a quarter to a half above the control has no call in these data; cut-offs in other NCI protocols can differ. Some T/C values carry the count of animals alive at the toxicity check (mostly the fifth day); where none is given, no animal had died by that day.

Tested on: P388 leukemia ip, CD2F1 mice, survival T/C
Assay: NCI In Vivo Anticancer Drug Screen. Data for tumor model P388 Leukemia (intraperitoneal) in CD2F1 (CDF1) mice
Settings: T/C endpoint: median survival time, higher T/C = longer survival
[1] = dose: 100.0 mg/kg/injection, schedule: Q01DX009 (ip), vehicle: water
[2] = dose: 200.0 mg/kg/injection, schedule: Q01DX009 (ip), vehicle: water
[3] = dose: 50.0 mg/kg/injection, schedule: Q01DX005 (ip), vehicle: Klucel (hydroxypropylcellulose) (HPC)
[4] = dose: 6.25 mg/kg/injection, schedule: Q01DX005 (ip), vehicle: saline with Tween-80
[5] = dose: 12.5 mg/kg/injection, schedule: Q01DX005 (ip), vehicle: saline with Tween-80
[6] = dose: 25.0 mg/kg/injection, schedule: Q01DX005 (ip), vehicle: saline with Tween-80
[7] = dose: 50.0 mg/kg/injection, schedule: Q01DX005 (ip), vehicle: saline with Tween-80
[8] = dose: 100.0 mg/kg/injection, schedule: Q01DX005 (ip), vehicle: saline with Tween-80
[9] = dose: 200.0 mg/kg/injection, schedule: Q01DX005 (ip), vehicle: saline with Tween-80
[10] = dose: 200.0 mg/kg/injection, schedule: Q01DX005 (ip), vehicle: saline
[11] = dose: 200.0 mg/kg/injection, schedule: Q01DX009 (ip), vehicle: saline with Tween-80
[12] = dose: 100.0 mg/kg/injection, schedule: Q01DX009 (ip), vehicle: saline with Tween-80
[13] = dose: 400.0 mg/kg/injection, schedule: Q01DX009 (ip), vehicle: saline with Tween-80
[14] = dose: 8.0 mg/kg/injection, schedule: Q01DX009 (ip), vehicle: other

`CCCCS(=O)(=O)N/N=C/C(=O)O` was tested, and the T/C (dose: 25.0 mg/kg/injection, schedule: Q01DX009 (ip), vehicle: water) was 135 and 136 % of control [5 of 6 alive], the T/C (dose: 50.0 mg/kg/injection, schedule: Q01DX009 (ip), vehicle: water) was 136 % of control [5 of 6 alive] and the survivor count [1] was 5 of 6. For the same molecule, the survivor count [2] was 4 of 6 and 5 of 6 and the survivor count (dose: 400.0 mg/kg/injection, schedule: Q01DX009 (ip), vehicle: water) was 0 of 6.

`Nc1c(/C=C/c2cc3ccc(C4=NCCN4)cc3[nH]2)[nH]c2cc(C3=NCCN3)ccc12` was tested, and the T/C [3] was 127 % of control, the T/C (dose: 100.0 mg/kg/injection, schedule: Q01DX005 (ip), vehicle: Klucel (hydroxypropylcellulose) (HPC)) was 142 % of control and the survivor count (dose: 200.0 mg/kg/injection, schedule: Q01DX005 (ip), vehicle: Klucel (hydroxypropylcellulose) (HPC)) was 0 of 6.

In the case of `O=C(O)CCC(CCC(=O)O)(C(=O)O)C(=O)O`, the survivor count (dose: 240.0 mg/kg/injection, schedule: Q01DX005 (ip), vehicle: saline) is reported as 6 of 6.

`CNC(=O)C1OC(n2cnc3c(N)ncnc32)C(O)C1O` (centres undefined) was tested, and the T/C (dose: 3.13 mg/kg/injection, schedule: Q01DX005 (ip), vehicle: saline with Tween-80) was 126 and 128 % of control, the T/C [4] was 125 [5 of 6 alive] and 129 % of control [5 of 6 alive] and the survivor count [4] was 0 of 6. For the same molecule, the survivor count [5] was 0 of 6, the survivor count [6] was 0 of 6 and the survivor count [7] was 0 of 6. The survivor count [8] was 0 of 6 and the survivor count [9] was 0 of 6.

For `COc1cccc2c1C(=O)c1c(O)c3c(c(O)c1C2=O)CC(=O)CC3OC1CC(NC(=O)C(F)(F)F)C(O)C(C)O1` (centres undefined), the survivor count (dose: 25.0 mg/kg/injection, schedule: Q01DX009 (ip), vehicle: other) was 6 of 6.

With `CCCCOC(=O)c1ccccc1OP(=O)(N(C)C)N(C)C` the survivor count [10] was 0 of 6.

With `CC1=NN(C(=O)c2ccncc2)C(=O)C1N=Nc1ccc2ccccc2c1` (centres undefined) the survivor count [11] was 6 of 6.

`NCc1c(Cl)c(Cl)c(CN)c(Cl)c1Cl` was tested, and the survivor count [11] was 3 of 6.

`COc1ccc2nc(C)cc(N/N=C/c3cccnc3)c2c1` was tested, and the survivor count (dose: 50.0 mg/kg/injection, schedule: Q01DX009 (ip), vehicle: Klucel (hydroxypropylcellulose) (HPC)) was 2 of 6, the survivor count (dose: 100.0 mg/kg/injection, schedule: Q01DX009 (ip), vehicle: Klucel (hydroxypropylcellulose) (HPC)) was 0 of 6 and the survivor count (dose: 200.0 mg/kg/injection, schedule: Q01DX009 (ip), vehicle: Klucel (hydroxypropylcellulose) (HPC)) was 0 of 6.

In the case of `Cc1ccccc1SSc1ccccc1C`, the T/C [12] is reported as 126 % of control and the survivor count [11] is reported as 2 of 6.

In the case of `COc1cc(N)ccc1NC(=O)c1ccccc1`, the survivor count (dose: 25.0 mg/kg/injection, schedule: Q01DX009 (ip), vehicle: saline with Tween-80) is reported as 3 of 6.

`COC(=O)Nc1ccc(Cc2ccc(NC(=O)OC)cc2)cc1` was tested, and the T/C (dose: 50.0 mg/kg/injection, schedule: Q01DX009 (ip), vehicle: saline with Tween-80) was 98, 110 (2×), 111, 118 % of control, the T/C [12] was 100, 104, 107, 133, 171 % of control and the T/C [11] was 144, 200, 212 % of control. For the same molecule, the survivor count [11] was 3 of 6 and 6 of 6, the T/C [13] was 87 % of control and the survivor count [13] was 6 of 6 (2×).

For `C=C1C(=O)C23C(O)CC4C5(C)CCCC4(C(O)OC5)C2C(OC(C)=O)CC1C3O` (centres undefined), the T/C [14] was 127 % of control and the T/C (dose: 32.0 mg/kg/injection, schedule: Q01DX009 (ip), vehicle: other) was 132 % of control.

With `CCCCCC(CN(C)C)C(=O)CC(SCC)c1ccc(Cl)c(Cl)c1` (centres undefined) the survivor count [1] was 3 of 6 and the survivor count [2] was 0 of 6.

With `CC(=NCc1ccccc1)NO` the survivor count [10] was 1 of 6.

In the case of `CC(C)C(O)C1CCOS1(=O)=O` (centres undefined), the survivor count (dose: 400.0 mg/kg/injection, schedule: Q04DX003 (ip), vehicle: saline) is reported as 2 of 6.

For `CC([NH-])C[NH-].CC([NH-])C[NH-].CC([NH-])C[NH-].[Co]` (centres undefined), the survivor count (dose: 200.0 mg/kg/injection, schedule: Q04DX003 (ip), vehicle: water) was 4 of 6.

In the case of `CC1CN1CCS(=O)(=O)CCN1CC1C` (centres undefined), the T/C [11] is reported as 127 % of control.

`COC(=O)c1cc(=O)nc(NN)s1` was tested, and the survivor count [9] was 3 of 5.

`C/C(=N\NC(=S)N1CCN(c2ccccn2)CC1)c1ncccn1` was tested, and the T/C [5] was 130 % of control, the survivor count [6] was 5 of 6 and 6 of 6 and the survivor count [7] was 2 of 6. For the same molecule, the survivor count [8] was 0 of 6 and the survivor count [9] was 0 of 6.

With `C/C(=N\NC(=S)N1CCCC1)c1nccs1` the survivor count [8] was 2 of 6 and the survivor count [9] was 2 of 6.

For `COc1cccc2c1C(=O)c1c(O)c3c(c(O)c1C2=O)C[C@@](O)(C(=O)COC(=O)Cc1cccc2ccccc12)C[C@@H]3OC1CC(N)C(O)C(C)O1` (some centres undefined), the T/C (dose: 0.5 mg/kg/injection, schedule: Q01DX009 (ip), vehicle: saline with Tween-80) was 139 % of control, the T/C (dose: 1.0 mg/kg/injection, schedule: Q01DX009 (ip), vehicle: saline with Tween-80) was 145 % of control and the T/C (dose: 2.0 mg/kg/injection, schedule: Q01DX009 (ip), vehicle: saline with Tween-80) was 136 % of control. For the same molecule, the survivor count (dose: 6.25 mg/kg/injection, schedule: Q01DX009 (ip), vehicle: other) was 6 of 6, the survivor count [14] was 6 of 6 and the T/C (dose: 8.0 mg/kg/injection, schedule: Q01DX009 (ip), vehicle: saline with Tween-80) was 128 % of control. For the same molecule, the survivor count (dose: 8.0 mg/kg/injection, schedule: Q01DX009 (ip), vehicle: saline) was 9 of 10, the survivor count (dose: 12.5 mg/kg/injection, schedule: Q01DX009 (ip), vehicle: other) was 6 of 6 and the survivor count (dose: 16.0 mg/kg/injection, schedule: Q01DX009 (ip), vehicle: saline with Tween-80) was 10 of 10. The survivor count (dose: 16.0 mg/kg/injection, schedule: Q01DX009 (ip), vehicle: saline) was 7 of 10.

`CC[CH2][Sn]([Cl])([Cl])[CH2]CC.Oc1ccccc1C=NCCN=Cc1ccccc1O` was tested, and the T/C (dose: 1.25 mg/kg/injection, schedule: Q01DX009 (ip), vehicle: gum acacia) was 125 % of control, the T/C (dose: 2.5 mg/kg/injection, schedule: Q01DX009 (ip), vehicle: gum acacia) was 134 % of control and the survivor count (dose: 10.0 mg/kg/injection, schedule: Q01DX009 (ip), vehicle: gum acacia) was 2 of 6.

In the case of `O=S1(=O)CC2(N3CCOCC3)C3CCC(C3)C21` (centres undefined), the survivor count (dose: 400.0 mg/kg/injection, schedule: Q04DX003 (ip), vehicle: saline with Tween-80) is reported as 4 of 6 and 5 of 6.

`Cc1cc(C)c(C#N)c(NN)n1` was tested, and the survivor count [6] was 2 of 5, the survivor count [7] was 2 of 5 and the survivor count [8] was 0 of 5. For the same molecule, the survivor count [9] was 0 of 5.

With `CSc1ncnc2c1c1c(N)ncnc1n2C1OC(CO)C(O)C1O` (centres undefined) the survivor count (dose: 400.0 mg/kg/injection, schedule: Q01DX005 (ip), vehicle: other) was 0 of 3.

In the case of `CN(C)c1nc(=O)c2cc(Br)ccc2o1`, the survivor count (dose: 240.0 mg/kg/injection, schedule: Q01DX005 (ip), vehicle: Klucel (hydroxypropylcellulose) (HPC)) is reported as 0 of 6.

In the case of `O=[N+]([O-])c1c(Sc2ncccn2)ncnc1Sc1ncccn1`, the survivor count (dose: 50.0 mg/kg/injection, schedule: Q01DX009 (ip), vehicle: saline) is reported as 5 of 6, the survivor count (dose: 100.0 mg/kg/injection, schedule: Q01DX009 (ip), vehicle: saline) is reported as 1 of 6 and the survivor count (dose: 200.0 mg/kg/injection, schedule: Q01DX009 (ip), vehicle: saline) is reported as 0 of 6.

For `CCOc1c(N=Nc2ccccc2Cl)c(-c2ccccc2)nn1C(=S)S`, the survivor count [9] was 0 of 6.

In the case of `CN(C)CCCN1c2ccccc2C2CC2c2ccccc21` (centres undefined), the survivor count [11] is reported as 2 of 6.

`COn1c2ccccc2c2c1cc1ccccc1[n+]2[O-]` was tested, and the survivor count [3] was 6 of 6.

In the case of `COc1ccc(C(C)N(C)C)cc1` (centres undefined), the survivor count (dose: 200.0 mg/kg/injection, schedule: Q01DX001 (ip), vehicle: other) is reported as 0 of 6 and the survivor count (dose: 400.0 mg/kg/injection, schedule: Q01DX001 (ip), vehicle: other) is reported as 0 of 6.

`CCC1OCN2CCCCC12` (centres undefined) was tested, and the T/C (dose: 100.0 mg/kg/injection, schedule: Q01DX005 (ip), vehicle: saline) was 125 % of control [5 of 6 alive] and the survivor count [10] was 1 of 6.
